Data taken from article PMC11483127.

Chains of the proteins cited; added tags and fusions are not shown.
UniProt Q8IHX2: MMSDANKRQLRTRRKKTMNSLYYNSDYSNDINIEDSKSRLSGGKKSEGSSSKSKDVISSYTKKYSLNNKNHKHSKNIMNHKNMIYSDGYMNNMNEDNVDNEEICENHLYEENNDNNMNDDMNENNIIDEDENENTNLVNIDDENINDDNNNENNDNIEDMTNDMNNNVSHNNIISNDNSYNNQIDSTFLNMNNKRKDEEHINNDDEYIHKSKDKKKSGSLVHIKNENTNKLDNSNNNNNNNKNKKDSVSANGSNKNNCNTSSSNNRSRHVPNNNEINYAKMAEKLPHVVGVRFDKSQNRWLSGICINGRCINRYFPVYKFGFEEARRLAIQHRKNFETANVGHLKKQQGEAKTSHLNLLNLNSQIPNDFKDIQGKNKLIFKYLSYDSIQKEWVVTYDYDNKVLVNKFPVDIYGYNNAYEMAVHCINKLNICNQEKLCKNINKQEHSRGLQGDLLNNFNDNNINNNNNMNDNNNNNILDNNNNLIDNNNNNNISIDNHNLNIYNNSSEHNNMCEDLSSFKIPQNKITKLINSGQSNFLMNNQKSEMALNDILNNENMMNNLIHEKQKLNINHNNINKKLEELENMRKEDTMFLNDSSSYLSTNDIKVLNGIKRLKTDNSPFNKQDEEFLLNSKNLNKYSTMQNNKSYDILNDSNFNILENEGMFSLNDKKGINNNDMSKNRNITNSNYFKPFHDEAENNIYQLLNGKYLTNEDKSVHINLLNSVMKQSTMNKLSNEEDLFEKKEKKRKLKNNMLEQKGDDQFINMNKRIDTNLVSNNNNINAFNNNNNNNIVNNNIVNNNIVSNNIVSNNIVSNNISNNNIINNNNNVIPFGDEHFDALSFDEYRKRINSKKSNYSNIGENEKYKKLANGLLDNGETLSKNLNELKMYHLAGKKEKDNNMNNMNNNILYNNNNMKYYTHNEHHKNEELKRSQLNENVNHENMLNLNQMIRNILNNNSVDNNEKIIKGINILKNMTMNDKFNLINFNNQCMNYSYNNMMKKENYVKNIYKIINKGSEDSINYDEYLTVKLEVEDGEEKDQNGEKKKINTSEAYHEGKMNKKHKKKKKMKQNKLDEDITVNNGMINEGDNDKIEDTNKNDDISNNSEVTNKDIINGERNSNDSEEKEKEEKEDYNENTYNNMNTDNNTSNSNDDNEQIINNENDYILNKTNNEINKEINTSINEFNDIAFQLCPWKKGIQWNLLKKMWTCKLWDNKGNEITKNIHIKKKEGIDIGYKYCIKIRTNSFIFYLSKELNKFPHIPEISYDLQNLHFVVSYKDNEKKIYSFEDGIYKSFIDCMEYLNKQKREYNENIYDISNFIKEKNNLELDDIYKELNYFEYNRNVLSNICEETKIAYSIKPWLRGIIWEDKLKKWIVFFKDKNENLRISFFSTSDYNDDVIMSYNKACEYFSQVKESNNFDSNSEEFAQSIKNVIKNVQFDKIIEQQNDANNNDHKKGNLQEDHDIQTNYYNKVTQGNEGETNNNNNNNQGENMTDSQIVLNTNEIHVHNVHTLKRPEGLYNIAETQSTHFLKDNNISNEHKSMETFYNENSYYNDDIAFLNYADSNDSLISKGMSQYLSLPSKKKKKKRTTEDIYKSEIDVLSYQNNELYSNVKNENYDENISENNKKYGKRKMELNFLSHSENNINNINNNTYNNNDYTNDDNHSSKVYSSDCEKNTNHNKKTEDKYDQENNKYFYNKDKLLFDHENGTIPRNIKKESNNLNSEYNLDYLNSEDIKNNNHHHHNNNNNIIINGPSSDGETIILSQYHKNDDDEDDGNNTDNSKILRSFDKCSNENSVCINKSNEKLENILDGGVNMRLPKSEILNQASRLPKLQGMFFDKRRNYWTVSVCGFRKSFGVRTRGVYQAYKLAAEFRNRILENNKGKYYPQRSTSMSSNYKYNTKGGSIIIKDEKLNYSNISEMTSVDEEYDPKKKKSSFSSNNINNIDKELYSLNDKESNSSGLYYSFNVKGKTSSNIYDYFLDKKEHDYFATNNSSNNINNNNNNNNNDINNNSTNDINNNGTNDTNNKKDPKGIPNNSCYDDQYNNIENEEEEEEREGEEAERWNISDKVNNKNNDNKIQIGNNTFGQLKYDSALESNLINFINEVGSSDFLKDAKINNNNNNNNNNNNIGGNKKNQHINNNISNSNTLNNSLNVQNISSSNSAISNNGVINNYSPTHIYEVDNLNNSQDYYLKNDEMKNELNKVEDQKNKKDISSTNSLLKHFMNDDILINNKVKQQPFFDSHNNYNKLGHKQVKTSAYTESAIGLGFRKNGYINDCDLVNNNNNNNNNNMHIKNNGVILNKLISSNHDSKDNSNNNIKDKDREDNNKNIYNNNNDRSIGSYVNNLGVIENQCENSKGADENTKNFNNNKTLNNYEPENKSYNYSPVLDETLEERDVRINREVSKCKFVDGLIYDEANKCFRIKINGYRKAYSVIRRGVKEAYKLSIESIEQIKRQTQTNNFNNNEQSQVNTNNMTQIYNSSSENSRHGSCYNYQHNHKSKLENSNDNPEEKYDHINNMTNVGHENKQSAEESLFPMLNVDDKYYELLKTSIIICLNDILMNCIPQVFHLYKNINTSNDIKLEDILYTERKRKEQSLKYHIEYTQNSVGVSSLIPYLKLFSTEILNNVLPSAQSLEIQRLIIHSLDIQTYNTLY
UniProt Q8IJW6: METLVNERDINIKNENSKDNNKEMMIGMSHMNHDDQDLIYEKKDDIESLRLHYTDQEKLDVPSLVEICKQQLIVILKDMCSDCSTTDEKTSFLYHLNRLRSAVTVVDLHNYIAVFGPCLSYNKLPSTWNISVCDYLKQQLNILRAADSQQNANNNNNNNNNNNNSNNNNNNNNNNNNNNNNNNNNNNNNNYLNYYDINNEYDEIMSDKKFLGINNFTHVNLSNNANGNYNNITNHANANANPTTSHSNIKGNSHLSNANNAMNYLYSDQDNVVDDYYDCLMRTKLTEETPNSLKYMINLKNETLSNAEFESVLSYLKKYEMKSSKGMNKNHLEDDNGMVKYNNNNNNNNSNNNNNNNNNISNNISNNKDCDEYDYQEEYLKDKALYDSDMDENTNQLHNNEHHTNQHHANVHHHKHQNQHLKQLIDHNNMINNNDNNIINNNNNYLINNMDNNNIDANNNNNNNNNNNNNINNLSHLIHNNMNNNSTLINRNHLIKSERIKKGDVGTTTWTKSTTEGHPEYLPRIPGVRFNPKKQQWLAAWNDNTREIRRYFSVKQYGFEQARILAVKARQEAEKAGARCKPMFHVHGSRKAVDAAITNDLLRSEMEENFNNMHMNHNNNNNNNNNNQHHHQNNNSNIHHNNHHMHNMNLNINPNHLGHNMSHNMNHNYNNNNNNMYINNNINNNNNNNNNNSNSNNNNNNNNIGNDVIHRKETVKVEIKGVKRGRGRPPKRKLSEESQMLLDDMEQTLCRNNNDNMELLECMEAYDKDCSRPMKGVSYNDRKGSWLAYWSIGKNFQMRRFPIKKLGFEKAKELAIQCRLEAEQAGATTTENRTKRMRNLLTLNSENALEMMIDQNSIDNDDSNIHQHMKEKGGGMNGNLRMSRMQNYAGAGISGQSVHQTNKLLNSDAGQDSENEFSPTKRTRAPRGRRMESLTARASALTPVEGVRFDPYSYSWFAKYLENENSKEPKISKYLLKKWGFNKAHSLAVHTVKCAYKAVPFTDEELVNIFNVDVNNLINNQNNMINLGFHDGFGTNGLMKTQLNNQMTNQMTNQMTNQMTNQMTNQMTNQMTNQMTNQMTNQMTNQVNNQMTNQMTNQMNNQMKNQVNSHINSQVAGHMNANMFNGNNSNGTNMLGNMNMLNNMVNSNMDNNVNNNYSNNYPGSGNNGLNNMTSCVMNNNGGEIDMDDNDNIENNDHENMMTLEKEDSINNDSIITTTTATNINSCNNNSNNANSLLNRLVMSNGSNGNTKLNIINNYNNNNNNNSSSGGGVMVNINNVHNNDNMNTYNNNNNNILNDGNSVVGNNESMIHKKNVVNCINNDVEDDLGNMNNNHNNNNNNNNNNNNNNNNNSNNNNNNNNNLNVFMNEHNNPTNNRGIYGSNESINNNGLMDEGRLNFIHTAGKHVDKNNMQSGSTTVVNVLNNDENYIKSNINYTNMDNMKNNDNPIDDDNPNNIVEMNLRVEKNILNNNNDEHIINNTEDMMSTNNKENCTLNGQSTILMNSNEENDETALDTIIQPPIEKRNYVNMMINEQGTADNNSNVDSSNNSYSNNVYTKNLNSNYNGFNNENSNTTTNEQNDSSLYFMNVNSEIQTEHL
UniProt Q8IIS4: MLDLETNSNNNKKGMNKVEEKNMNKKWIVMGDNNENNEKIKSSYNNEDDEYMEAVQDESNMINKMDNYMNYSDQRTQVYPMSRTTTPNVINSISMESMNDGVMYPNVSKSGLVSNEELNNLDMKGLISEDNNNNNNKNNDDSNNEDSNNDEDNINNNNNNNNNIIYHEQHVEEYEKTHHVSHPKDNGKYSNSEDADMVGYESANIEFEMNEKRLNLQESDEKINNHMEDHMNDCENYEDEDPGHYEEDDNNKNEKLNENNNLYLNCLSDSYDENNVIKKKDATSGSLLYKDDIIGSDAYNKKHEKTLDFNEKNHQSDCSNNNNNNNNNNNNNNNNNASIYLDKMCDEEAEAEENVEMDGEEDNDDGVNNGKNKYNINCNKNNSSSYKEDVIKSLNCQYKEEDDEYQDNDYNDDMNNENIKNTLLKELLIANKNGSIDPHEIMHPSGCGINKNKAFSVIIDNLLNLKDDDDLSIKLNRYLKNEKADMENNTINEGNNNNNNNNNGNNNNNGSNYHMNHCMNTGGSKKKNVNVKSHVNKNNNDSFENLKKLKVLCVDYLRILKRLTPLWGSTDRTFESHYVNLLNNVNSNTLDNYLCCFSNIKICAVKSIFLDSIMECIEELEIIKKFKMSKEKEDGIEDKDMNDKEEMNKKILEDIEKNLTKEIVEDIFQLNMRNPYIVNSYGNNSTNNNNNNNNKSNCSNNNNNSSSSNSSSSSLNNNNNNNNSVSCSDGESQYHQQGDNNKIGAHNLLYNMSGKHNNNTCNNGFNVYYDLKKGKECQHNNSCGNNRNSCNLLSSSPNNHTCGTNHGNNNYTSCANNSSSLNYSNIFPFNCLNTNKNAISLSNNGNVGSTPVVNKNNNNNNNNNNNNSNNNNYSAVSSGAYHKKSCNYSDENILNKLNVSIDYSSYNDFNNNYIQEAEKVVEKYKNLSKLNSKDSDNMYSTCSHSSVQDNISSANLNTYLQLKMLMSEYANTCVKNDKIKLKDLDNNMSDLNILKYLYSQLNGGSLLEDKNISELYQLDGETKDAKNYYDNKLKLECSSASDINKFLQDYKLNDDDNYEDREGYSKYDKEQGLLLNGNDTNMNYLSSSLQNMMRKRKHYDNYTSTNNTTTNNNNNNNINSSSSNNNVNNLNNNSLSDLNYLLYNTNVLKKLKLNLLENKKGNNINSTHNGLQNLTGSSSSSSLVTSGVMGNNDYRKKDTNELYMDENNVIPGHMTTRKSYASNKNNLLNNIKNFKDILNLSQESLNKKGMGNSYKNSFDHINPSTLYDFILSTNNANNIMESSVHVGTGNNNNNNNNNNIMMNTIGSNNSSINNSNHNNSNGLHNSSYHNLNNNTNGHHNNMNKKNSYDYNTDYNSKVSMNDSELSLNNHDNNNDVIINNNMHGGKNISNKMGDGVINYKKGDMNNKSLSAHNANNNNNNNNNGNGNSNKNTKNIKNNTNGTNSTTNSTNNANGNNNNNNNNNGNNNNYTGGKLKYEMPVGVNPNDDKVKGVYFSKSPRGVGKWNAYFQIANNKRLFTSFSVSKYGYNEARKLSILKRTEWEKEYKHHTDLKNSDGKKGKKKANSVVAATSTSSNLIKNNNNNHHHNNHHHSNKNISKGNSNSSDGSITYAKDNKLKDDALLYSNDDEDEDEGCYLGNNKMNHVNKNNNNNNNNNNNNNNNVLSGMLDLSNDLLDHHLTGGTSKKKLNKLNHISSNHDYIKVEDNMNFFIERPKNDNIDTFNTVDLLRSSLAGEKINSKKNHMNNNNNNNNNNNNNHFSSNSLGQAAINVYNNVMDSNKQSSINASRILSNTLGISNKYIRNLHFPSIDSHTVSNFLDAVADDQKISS

B1: ATP-dependent RNA helicase DBP5 (protein, UniProt Q8IKP1 1-741)
chain: METQEAPNIETKDEKQNGDADIIVTNKDEQSSKKKEENSNDDNKPGDVKEPADDNKPSDKKQPDDDNKYSDKKQPDDDNKSSDKKQPADDNKDNAGSDNVMNMFLNYLQKNKDDPAILQTMMSMMSGQNKNNLSASDLLSFTNSLNKKGEEKGEKNKEEEKKENEMPSEDLKNPSELITKEEKNEDNISTSDTQNVSNNIITKSESDTKQNNDSSSNNNNNNNYSVSEKVSGEENTNNNNNEEVVKKKHSVLVEDNDDYEIEETVEPKEPVEEEAISIIENININNKEKEKKGNDLFSPTSSSIENNNNDNNKESSDFKLYHSKNTWEELKIDNELIQILTYLKFLGPSKIQAYALPIILSSNKNLIAQSQNGSGKTLTFVIAMLCKINRTLSSLQAVCICPTRELSQQNYDVVCNFTKYLNVKVFLAVPLCERYNKSGGYQIYVGTPGKTLDFLKRKFIDTKNIKLFVLDEADDLIDIKNNMSSQVETIKRFLPRSCQILLFSATYNDSVRKFADQFAPKATKISVRQEDLTLKCVKQYYLITENDEQKYYYLSELYCSMTISQCVIFVNSKKSAYNLYNFMTENSHNVTLICADSIISRFTKNQIQKANVLGMDPKTRDTLMADFKKGISKVLICTDLLSRGIDVPSISLVINFDLPYIYQGRIGDTLNNTSNQRVNMETYIHRIGRTGRFGTKGMAINFISKNQMSHIKQIEEYYKCSIADLEFDSELMITSLTKLKN
B2: AP2 domain transcription factor AP2-O5 (protein, UniProt Q8IKY0 1-715)
chain: MINYKDNKNSIEDNKENDSHLVKNTSYEKASEIVESDMYESNEDSNTKNKGVWYNARTKCWLACVKGSGRHLRVFSVKKYGYKKAKMLAIECKNSVFYNEQNEENNNDIHMKSNTSNNNNNNNMNSSSNSSTGNDNGYKLNNKKGNSEYNYNNMKEMNNKTNVNNYDDDIKDIDYKKRRNKLNEENEEVDIYNGRKNTDNGNINSSKNNAVILKKEKLKTNGNIINDITNTGRRYNTRRGSTLSSHEINKNERNNKNENNNIYDRYNYKNYAYNDQTKSNNNNNNDNNNNNNNNEDDNVHNEKIAIAHKNNHVQNNNFYNNNNNNNNNNNNNNNNNNVLNTIHNNVYNNLYHNDPNYDDRDNDVNQDHYNEHNNNNNNNYFYNTYDNHTYNTRNTTNISNYNNYENKKMNSKTLLQGQNKNISTTYGAPNKRYIEHLEDVCEYDNGNKKKKRKEQYAYLIRNDDESSNMNNNNNMKNFNNTNINAYQQNNYNNNYCTNYTTSYQRNVHSSNYNNTGYNNNNNNNNFNNNNNFNNNNNFNNNNNFNNNNNFNNNLAFLNSHCILTDKDFQIDSPDQTFDDYYYMKAHGYDDSEYSTRGKNKYNENEYNFIFSNEYYSDSCQPNIDEYKTNFIDLTREALSLILQDLKNNVIPKIPVGIEKRERYKNSLRLCLKSARNTQHMNELEPYLELFSECIKNSKLPSHMSLKDQLFYLDKL
B3: DNA helicase 60, DH60 (protein, UniProt Q8I5E7 1-742)
chain: MRRNLLKLTSINCKKNDYVSLSNNFFLIKNRSYKYITVRNKIGRNVFNEKDNCAILNRGQTHVVGIKKNICTENKVKQQDGEFYMNQRVPDDMDNDMDNNVDNDMDNNVDNHVDNHVDNHVDNHVDNHMDNHINNHTHKNVHDDTSYDNNSFDRYQRKRDEIGENGFVQNRRYENYEKRKQSKTNYSYDNDYNQGSRNKRNMSYPDRYEELGSHLKDIEWDNVKYKMERQNLYNNNYNKCNDQNNNQNSNDNLNNEQTNCLSKEDIQNELKKNNIYINKDGIIHNIINKFSDVCFHESILNYLNNKFSEPTAIQKITWPIALSGKDLIGVAETGSGKTLAFVLPCFMHILKHKEIIQNNNNNKQTNQNNNLQQEQEGKTNNHHIINNYNENNDNNENNHNNNNNNNNNNNNSYDYDYDINSSERASDTYGLILLPTRELCLQVLDEIKSFEKNLPIKSVAVYGGVPKYYQINNLKKGADIIVATPGRLLDFLENGNINLLKCIYVVIDEADRLLDMGFEKQLRKIMTQVNKNKQLLFLTATWPEQVRKLAYDFCSYDPVKIQIGKNELTANKNIEQNVIISSSIDMKKKLLDWLKENYENNKILIFCDTKRNCDNLCKELRYHQYNALSIHGDKQQRERDRILNNYKTDRCNILVATDVASRGLDIKNISVVINYDIPNTIEDYIHRIGRTGRAGKKGKSILFFSYDYYMPQKLKFAKELIKLLNKTNQTVPPQLKEIAYSR
B4: EELM2 domain-containing protein PfEELM2 (protein, UniProt Q8I3R2 1-668)
chain: MNDYNDKEVYISEEEEEEEQEQEQEQEHEQEQEEEQEEDYEQEQEEEQEEEQVHGIEKNNNEEKSDKRNGHYLEGNHDHDVEELHDDDDDVNHTYVYDNEKYVHKVEDNHLTDNDMIEEDEENDQKRDEDLNEEEEYEHDSNHNNIDIDESNKEESEAEQNLKKEDYDNVDEDKKDNLQKNVAYANTIIKGGRNLRNLNKSSTSFDKTKKEQNNNMNGGGTNFIKTLSDENNLQNNVPHGRRKRKVSKDLNLNNEYVYGTNLNFKHARNVNDDIDEHEESENNHDQNNNEEINEHNQNDDNPIHNDNTNANNDDDDDNNIINNNENVVKTNEKILNGKQTNLRGSHLKLKTNRTKKNKKLSNKLNRNIAKNVNKNNNGRYGNVGRAQASTTQGNEKKVHGTNDNAEYTTHNRGRNSTTTNFTNRHSRVTFNNNNEGTYYAGHNNNTSTSHGNRHNDPHEEAEPKKGKKKRVTEEGSKESGKINVGDSYQVSNLPNFFLCRSELMYKNYDTQENTNDQMCLSCSGLPCHCKVGEATLVYSPIMLERVRERCLKNRGYHKCVKNEIELSAYVQECAKSWKSNIDEWVPFSPEYAYKLLHYANYDPHKAISIMKSSEFSFRKIMDPPTRKYQNKWKPKDKREHISKNPFPSPLTIRTYLSKRHHNSGYHLR

Each molecule was assayed against PfMORC^GFP (Plasmodium falciparum microrchidia protein MORC, GFP-tagged) (Plasmodium falciparum (3D7 background)) (UniProt Q8IKF6) (assay: affinity purification with mass spectrometry; PfMORC^GFP captured from trophozoite (32 hpi) lysate in modified RIPA buffer (50 mM Tris pH 7.5, 150 mM NaCl, 0.5% sodium deoxycholate, 1% Nonidet P-40) on anti-GFP-Trap-A beads overnight; eluate resolved by SDS-PAGE, label-free LC-MS/MS, three biological replicates; wild-type 3D7 as negative control; cutoff fold change 1.5x GFP/3D7).

binding, binds:
AP2 domain transcription factor (ApiAP2) PF3D7_0420300 (from UniProt Q8I1N6)
AP2 domain transcription factor AP2-G5 (from UniProt Q8IHX2 1-2653)
AP2 domain transcription factor AP2-I (from UniProt Q8IJW6 1-1597)
AP2 domain transcription factor PF3D7_0613800 (from UniProt C6KSY0 1-4109)
AP2 domain transcription factor PF3D7_1107800 (from UniProt Q8IIS4 1-1828)
AP2 domain transcription factor PF3D7_1239200 (from UniProt Q8I531 1-2577)
SNF2 chromatin-remodeling ATPase ISWI (from UniProt C6KT82 1-2719)
SNF2 helicase, putative or Chromodomain-helicase-DNA-binding protein 1 homolog, CHD1 (from UniProt Q8IJG6 1-3328)

Biological target: PfMORC^GFP (Plasmodium falciparum microrchidia protein MORC, GFP-tagged) (Plasmodium falciparum (3D7 background)) (UniProt Q8IKF6)
Test: as above
Remark: another data set of the same source

binding, binds:
B1
B2
B3
B4

No constants are given. Whether binding was seen depends on the method and setting. Binding seen in cells or lysates may run through a third protein. A yes stands for co-enrichment or nearness to the bait. Other partners may have been found.
